Our source for the binding values is US20230081195A1 (INSTITUTE OF GENETICS AND DEVELOPMENT BIOLOGY CHINESE …, published 2023).

For assay [1], the target named is T1, OML4-MYC (rice) (UniProt Q64M78).
T1 sequence: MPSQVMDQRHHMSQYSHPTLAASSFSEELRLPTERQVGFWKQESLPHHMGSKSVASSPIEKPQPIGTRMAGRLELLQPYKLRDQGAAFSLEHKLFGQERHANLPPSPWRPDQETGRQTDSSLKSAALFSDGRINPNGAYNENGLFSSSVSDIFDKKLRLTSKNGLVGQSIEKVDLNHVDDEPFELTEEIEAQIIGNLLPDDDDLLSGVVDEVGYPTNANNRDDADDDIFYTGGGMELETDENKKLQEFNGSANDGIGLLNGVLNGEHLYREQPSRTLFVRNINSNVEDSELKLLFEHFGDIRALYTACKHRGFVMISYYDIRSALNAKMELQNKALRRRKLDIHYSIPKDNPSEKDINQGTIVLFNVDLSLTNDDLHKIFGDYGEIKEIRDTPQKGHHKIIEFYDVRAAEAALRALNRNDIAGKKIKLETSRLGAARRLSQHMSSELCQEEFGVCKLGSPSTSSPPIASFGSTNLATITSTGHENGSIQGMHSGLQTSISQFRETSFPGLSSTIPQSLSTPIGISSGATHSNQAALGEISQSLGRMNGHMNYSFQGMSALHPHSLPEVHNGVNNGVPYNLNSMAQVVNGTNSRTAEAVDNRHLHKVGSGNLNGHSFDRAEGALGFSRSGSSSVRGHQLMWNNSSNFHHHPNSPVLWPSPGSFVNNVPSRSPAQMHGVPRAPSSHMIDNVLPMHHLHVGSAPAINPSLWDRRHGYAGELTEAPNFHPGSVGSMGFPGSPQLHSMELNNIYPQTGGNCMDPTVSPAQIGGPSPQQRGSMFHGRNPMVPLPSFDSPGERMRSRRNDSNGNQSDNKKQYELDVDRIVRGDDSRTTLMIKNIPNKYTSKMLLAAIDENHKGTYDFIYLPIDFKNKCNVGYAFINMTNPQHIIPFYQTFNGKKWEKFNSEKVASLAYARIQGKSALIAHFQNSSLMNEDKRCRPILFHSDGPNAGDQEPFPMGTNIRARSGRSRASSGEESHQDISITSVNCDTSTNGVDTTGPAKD
Kind of assay: co-immunoprecipitation with anti-MYC beads, blots with anti-MYC or anti-GFP.

Assay [2] deals with T1, OML4-MYC (rice). The experiment in a line: co-immunoprecipitation with MYC beads from N. benthamiana leaves, blots with anti-MYC and anti-GFP.
Assay [3] concerns the target T2, GSK2-GST (rice) (UniProt Q60EZ2).
T2 sequence: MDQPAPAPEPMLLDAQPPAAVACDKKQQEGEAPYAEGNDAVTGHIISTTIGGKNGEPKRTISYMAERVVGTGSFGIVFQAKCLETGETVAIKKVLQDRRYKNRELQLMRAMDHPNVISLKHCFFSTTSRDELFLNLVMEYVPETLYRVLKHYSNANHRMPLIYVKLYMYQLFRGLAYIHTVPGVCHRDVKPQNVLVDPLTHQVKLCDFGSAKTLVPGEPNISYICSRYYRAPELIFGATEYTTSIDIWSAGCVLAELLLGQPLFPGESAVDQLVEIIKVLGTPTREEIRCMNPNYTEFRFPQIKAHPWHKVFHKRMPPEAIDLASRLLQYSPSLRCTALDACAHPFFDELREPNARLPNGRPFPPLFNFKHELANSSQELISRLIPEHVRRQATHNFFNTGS
The experiment in a line: in vitro pull-down on MBP beads, immunoblot with anti-GST.

The target of assay [4] is T2, GSK2-GST (rice). Kind of assay: in vitro pull-down, GSK2-GST pulled down by OML4-MBP, immunoblot with anti-GST.

Results are given in words; binding and its absence hold for the method and conditions named. In cells and extracts the contact can be indirect. Some entries that bind do so weakly or less than the wild type. Sequences can lack the tags named with a protein.

B1: GSK2-GFP (enzyme, not shown: large carriers)
chain: T2 sequence
Turning to B1, the binding entry in the assay with OML4-MYC (rice) [1] and in the assay with OML4-MYC (rice) [2] was “binds” each time.

B2: OML4-MBP (protein, not shown: large carriers)
chain: T1 sequence
For B2, the binding entry with GSK2-GST (rice) [3] and with GSK2-GST (rice) [4] was “binds” each time.
